Test results as given in the supplement of paper PMC10849652.
The list shows a part of the results.

Amino acid sequences for entries named in this document (tags omitted). A change or cut given only in a name is not applied to a line headed by its entry.
UniProt Q16629: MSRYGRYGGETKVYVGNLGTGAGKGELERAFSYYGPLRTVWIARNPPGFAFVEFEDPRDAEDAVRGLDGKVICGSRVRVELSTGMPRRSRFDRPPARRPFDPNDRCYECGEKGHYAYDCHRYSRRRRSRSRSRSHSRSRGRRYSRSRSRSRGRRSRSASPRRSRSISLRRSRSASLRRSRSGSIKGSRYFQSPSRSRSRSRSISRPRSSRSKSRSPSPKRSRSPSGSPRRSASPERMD
UniProt Q9NYA1, whole entry, looked up: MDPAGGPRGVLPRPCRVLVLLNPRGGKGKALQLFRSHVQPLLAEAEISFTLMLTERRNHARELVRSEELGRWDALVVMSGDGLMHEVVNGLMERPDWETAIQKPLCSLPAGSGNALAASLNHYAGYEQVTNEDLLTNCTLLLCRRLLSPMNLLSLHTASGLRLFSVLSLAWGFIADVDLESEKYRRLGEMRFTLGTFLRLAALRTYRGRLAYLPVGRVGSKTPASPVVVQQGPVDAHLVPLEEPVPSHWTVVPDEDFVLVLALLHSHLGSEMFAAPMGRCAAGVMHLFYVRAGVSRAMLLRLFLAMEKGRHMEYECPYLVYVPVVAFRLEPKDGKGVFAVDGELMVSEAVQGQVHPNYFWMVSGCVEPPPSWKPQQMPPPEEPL
UniProt Q9NRC1: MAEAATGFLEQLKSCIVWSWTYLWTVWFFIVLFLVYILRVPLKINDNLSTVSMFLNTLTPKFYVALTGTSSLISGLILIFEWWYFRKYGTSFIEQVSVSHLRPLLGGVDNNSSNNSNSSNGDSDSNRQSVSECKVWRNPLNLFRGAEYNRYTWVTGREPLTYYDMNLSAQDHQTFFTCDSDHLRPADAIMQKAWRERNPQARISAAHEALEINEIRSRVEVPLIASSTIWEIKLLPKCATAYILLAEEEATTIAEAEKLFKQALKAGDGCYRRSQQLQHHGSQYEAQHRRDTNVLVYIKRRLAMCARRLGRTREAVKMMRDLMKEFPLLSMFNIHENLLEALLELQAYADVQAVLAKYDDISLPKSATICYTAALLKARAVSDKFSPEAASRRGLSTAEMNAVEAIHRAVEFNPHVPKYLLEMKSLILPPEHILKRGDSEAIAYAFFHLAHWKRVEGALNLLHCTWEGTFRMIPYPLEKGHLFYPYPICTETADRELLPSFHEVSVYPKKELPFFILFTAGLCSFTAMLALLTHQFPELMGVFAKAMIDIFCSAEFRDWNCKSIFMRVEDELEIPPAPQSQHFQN
UniProt Q8N0X7: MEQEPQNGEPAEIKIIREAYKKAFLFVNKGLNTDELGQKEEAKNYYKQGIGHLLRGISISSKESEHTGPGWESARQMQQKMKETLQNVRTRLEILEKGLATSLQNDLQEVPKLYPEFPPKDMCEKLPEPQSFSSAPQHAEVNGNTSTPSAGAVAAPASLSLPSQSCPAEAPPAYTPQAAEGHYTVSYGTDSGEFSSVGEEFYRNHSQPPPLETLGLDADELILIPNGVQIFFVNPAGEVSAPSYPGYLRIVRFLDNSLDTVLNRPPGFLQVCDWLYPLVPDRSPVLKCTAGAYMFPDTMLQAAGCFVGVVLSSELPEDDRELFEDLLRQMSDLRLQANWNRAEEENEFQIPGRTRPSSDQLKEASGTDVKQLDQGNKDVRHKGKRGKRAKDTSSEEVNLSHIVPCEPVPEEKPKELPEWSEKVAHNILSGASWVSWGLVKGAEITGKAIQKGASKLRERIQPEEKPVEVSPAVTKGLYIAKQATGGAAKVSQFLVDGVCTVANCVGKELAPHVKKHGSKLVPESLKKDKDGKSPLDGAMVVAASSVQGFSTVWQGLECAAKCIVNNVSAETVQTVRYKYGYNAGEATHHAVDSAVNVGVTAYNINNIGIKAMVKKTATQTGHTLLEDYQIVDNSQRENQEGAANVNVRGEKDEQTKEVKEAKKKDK
UniProt P42224: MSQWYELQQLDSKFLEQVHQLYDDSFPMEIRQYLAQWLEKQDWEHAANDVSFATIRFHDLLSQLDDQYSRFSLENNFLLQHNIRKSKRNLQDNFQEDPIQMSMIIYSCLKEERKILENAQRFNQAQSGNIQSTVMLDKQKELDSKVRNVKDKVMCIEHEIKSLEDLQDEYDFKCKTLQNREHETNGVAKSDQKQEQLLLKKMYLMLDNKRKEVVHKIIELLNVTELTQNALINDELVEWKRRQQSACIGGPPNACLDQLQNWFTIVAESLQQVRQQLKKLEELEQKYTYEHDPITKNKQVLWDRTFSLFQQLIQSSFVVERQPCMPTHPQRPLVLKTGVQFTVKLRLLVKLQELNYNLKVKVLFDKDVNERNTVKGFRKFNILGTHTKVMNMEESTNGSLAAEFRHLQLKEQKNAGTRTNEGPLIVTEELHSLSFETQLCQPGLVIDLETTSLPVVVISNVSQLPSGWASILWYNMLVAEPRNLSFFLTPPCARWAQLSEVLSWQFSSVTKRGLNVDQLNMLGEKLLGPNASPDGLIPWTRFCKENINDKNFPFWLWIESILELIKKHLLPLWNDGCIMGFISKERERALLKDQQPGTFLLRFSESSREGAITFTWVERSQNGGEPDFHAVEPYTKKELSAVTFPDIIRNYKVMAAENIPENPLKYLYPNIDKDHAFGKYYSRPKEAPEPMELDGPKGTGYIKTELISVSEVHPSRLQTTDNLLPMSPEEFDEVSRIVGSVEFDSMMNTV
UniProt Q92783: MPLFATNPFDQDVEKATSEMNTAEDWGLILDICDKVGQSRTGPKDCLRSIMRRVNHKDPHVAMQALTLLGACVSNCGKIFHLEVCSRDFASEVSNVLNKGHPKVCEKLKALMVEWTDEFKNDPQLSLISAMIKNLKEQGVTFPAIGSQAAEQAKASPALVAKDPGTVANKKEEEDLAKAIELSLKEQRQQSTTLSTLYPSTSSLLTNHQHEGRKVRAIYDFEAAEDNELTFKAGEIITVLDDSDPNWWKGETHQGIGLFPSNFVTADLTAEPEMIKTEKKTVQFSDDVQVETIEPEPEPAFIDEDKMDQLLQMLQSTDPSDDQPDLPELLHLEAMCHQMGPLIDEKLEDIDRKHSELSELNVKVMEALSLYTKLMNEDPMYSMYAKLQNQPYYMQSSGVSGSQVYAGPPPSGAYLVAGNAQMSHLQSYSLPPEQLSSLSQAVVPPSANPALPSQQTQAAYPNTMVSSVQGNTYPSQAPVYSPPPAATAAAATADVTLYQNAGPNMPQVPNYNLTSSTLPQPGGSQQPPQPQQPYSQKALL
UniProt Q8WW59: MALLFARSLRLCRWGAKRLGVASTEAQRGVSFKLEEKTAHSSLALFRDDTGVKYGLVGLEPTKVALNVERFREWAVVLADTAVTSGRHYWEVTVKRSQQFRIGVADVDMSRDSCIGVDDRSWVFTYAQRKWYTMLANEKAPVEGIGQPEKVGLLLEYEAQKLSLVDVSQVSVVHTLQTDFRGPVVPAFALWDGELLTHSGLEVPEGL
UniProt P43307: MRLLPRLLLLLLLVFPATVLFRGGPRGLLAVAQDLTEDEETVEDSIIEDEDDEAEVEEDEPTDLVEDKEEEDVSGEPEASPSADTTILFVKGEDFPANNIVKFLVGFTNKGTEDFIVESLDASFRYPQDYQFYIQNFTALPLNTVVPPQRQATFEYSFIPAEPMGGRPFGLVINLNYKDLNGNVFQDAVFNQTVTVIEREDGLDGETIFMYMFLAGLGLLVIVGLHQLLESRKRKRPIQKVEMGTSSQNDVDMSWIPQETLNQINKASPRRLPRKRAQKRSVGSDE
UniProt P40763, whole entry, looked up: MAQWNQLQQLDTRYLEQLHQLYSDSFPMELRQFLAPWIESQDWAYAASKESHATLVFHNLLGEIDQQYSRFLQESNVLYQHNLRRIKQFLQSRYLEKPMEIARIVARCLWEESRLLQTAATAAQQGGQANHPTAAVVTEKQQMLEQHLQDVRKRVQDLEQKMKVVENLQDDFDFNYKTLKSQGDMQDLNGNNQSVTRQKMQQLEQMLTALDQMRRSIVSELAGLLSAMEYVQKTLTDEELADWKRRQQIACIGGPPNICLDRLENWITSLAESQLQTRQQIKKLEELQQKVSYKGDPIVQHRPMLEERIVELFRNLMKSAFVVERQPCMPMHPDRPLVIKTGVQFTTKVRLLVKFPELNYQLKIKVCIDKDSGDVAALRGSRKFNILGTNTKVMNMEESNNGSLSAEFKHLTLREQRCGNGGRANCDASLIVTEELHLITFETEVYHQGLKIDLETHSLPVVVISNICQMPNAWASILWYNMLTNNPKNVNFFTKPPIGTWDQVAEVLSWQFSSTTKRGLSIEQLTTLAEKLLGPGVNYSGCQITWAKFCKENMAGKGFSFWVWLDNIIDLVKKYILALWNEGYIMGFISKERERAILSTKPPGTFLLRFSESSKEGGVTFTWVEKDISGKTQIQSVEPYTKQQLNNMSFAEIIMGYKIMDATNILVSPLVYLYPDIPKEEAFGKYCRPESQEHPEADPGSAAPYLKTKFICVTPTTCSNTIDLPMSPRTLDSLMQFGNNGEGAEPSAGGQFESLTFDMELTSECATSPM
UniProt Q8NBT2: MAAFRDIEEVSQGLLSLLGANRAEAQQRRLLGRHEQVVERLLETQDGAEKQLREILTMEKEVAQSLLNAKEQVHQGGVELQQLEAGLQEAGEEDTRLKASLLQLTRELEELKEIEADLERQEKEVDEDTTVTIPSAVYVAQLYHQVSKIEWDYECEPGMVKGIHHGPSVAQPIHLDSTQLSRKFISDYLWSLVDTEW
UniProt O43805: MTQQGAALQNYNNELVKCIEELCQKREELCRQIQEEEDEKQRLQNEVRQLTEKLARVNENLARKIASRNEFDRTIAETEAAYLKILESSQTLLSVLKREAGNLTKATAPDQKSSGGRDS
UniProt P30626: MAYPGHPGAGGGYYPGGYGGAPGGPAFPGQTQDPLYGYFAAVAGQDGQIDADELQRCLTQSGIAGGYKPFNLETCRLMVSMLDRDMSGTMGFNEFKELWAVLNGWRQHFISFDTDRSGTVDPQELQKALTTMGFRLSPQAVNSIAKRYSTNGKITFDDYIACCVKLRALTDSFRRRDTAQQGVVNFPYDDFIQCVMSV
UniProt Q8IYB3: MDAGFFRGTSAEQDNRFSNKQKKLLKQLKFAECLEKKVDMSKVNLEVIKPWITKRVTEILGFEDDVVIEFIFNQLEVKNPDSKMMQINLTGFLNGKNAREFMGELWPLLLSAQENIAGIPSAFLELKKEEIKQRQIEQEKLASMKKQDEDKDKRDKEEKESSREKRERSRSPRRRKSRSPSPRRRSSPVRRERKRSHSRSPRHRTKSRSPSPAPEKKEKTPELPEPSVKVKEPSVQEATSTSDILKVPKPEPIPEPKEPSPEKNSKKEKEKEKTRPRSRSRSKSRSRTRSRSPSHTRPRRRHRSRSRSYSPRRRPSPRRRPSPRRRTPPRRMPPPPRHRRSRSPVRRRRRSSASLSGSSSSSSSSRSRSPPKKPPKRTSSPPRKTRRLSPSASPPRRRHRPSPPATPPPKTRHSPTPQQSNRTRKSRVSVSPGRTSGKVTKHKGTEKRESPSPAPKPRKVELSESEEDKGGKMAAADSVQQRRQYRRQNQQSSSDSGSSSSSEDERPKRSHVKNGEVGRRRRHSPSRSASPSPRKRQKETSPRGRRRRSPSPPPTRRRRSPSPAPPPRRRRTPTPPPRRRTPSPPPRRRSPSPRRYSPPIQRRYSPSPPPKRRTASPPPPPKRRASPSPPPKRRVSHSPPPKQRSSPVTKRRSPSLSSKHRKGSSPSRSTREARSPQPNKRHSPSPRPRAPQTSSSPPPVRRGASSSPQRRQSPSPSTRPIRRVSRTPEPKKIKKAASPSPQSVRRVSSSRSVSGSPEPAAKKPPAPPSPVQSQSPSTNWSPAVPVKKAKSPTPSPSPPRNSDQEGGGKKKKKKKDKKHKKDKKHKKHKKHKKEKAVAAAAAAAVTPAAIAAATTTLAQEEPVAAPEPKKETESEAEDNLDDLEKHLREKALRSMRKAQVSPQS
UniProt O76094: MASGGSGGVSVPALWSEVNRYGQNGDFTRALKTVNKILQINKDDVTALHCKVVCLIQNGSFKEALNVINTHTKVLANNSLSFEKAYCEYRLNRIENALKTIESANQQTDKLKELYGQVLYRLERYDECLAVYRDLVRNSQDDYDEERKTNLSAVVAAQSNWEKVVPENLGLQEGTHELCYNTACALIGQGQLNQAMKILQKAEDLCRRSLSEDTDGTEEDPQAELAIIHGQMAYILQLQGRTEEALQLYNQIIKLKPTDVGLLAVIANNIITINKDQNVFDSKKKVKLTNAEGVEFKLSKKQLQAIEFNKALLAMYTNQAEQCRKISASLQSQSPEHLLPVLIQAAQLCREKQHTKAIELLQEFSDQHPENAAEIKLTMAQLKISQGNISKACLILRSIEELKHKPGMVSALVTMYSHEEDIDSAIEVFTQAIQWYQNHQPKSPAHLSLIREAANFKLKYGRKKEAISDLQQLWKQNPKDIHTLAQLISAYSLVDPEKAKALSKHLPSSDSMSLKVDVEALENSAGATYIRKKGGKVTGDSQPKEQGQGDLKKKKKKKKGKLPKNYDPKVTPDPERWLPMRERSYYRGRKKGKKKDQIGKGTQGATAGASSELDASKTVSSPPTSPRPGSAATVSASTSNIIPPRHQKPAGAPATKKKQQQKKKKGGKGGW

Assays:
Test in all cases: log2 fold change, soluble protein after heating vs DMSO (PISA); higher = thermal stabilisation; K562 cells, 10 uM, 30 min; active = over 0.2 and 3.5 SD of the protein, either way, in both replicates (recomputed)
[1] = compound: C#Cc1cccc(Nc2ncnc3cc(OCCOC)c(OCCOC)cc23)c1 [erlotinib]
In short: (§1)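 K562 cells (2×10^6 cells/mL) were treated with 10 μM compound for 30 min, and aliquots were heated for 3 min over 48°C-58°C. Pooled aliquots were extracted in PBS with 0.5% NP-40 at 4°C, and the supernatant after 21,000xg for 90 min was measured by TMTpro 16plex LC-MS/MS with channel sums equalised. Reported thermal stability, relative to control samples and from duplicates, is a log2 fold change.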

[2] = compound: C/C(=N\NC(=O)C1=CC(=CC=C1)S(=O)(=O)N2CCOCC2)/C3=C(C=CC(=C3)Cl)O
In short: as §1

[3] = compound: C1=CC(=C(C=C1Cl)C2=NC3=NC=CN=C3C(=N2)NC4=CC=NC=C4)F
In short: as §1

[4] = compound: C1=CC(=CC=C1C2=NC3=C(N2)C=C(C=C3)C(=O)N)OC4=CC=C(C=C4)Cl
In short: as §1

[5] = compound: C1=CC2=C(C=CC(=C2)/C=C\3/C(=O)NC(=NCC4=CC=CS4)S3)N=C1
In short: as §1

[6] = compound: C1=CC2=NC=CN=C2C=C1/C=C/3\C(=O)NC(=O)S3
In short: as §1

[7] = compound: C1=CC=C(C=C1)C2=NC(=C(N2)C3=CC=NC=C3)C4=CC(=C(C=C4)Cl)O
In short: as §1

[8] = compound: C1=CC=C2C(=C1)C3=NNC4=CC=CC(=C43)C2=O
In short: as §1

[9] = compound: C1CCN(C1)C(=O)NC2=CC=CC(=C2)NC3=NC=C(C(=N3)NCCC4=CN=CN4)Br
In short: as §1

[10] = compound: C1CN(CCC1(CC2=CC=C(C=C2)Cl)N)C3=NC=NC4=C3C=CN4
In short: as §1

Measured: log2 fold change

SRSF7 (UniProt Q16629)
inactive: [1] 0.083 | [2] -0.043 | [3] -0.292 | [4] 0.063 | [5] -0.154 | [6] -0.032 | [7] -0.135 | [8] -0.037 | [9] 0.084 | [10] -0.063

SPHK1 isoform 2 (UniProt Q9NYA1)
inactive: [1] -0.028 | [2] 0.109 | [3] -0.039 | [4] -0.019 | [5] 0.051 | [6] 0.001 | [7] 0.074 | [8] -0.123 | [9] -0.059 | [10] 0.115

ST7 (UniProt Q9NRC1)
inactive: [1] 0.094 | [2] 0.022 | [3] 0.017 | [4] -0.009 | [5] -0.009 | [6] 0.004 | [7] -0.065 | [8] -0.017 | [9] -0.057 | [10] -0.039

STAG2 (UniProt Q8N3U4)
inactive: [1] -0.01 | [2] 0.063 | [3] -0.009 | [4] 0.006 | [5] 0.015 | [6] 0.001 | [7] -0.014 | [8] -0.138 | [9] -0.047 | [10] 0.007

STEAP3 isoform 2 (UniProt Q658P3)
inactive: [1] 0.053 | [2] 0.038 | [3] 0.017 | [4] -0.019 | [5] 0.053 | [6] 0.02 | [7] -0.008 | [8] 0.004 | [9] -0.036 | [10] 0.032

SPART (UniProt Q8N0X7)
inactive: [1] 0.024 | [2] 0.008 | [3] 0.057 | [4] 0.008 | [5] 0.07 | [6] 0.002 | [7] -0.008 | [8] -0.014 | [9] -0.033 | [10] -0.055

STAMBP (UniProt O95630)
inactive: [1] -0.001 | [2] 0.105 | [3] -0.015 | [4] -0.071 | [5] 0.006 | [6] -0.029 | [7] 0.089 | [8] 0.033 | [9] 0.005 | [10] -0.148

STAT1 (UniProt P42224)
inactive: [1] -0.045 | [2] -0.067 | [3] -0.276 | [4] 0.096 | [5] -0.015 | [6] 0.035 | [7] -0.042 | [8] -0.004 | [9] 0.04 | [10] -0.084

SSR3 isoform 2 (UniProt Q9UNL2)
inactive: [1] 0.019 | [2] 0.054 | [3] -0.013 | [4] -0.003 | [5] -0.187 | [6] 0.037 | [7] 0.006 | [8] 0.028 | [9] -0.119 | [10] -0.011

SRPRA (UniProt P08240)
inactive: [1] -0.01 | [2] 0.061 | [3] 0.073 | [4] 0.007 | [5] 0.054 | [6] -0.048 | [7] 0.063 | [8] 0.003 | [9] 0.001 | [10] 0.006

2 consecutive entries out of the list so far, for reference:
SRSF7 (UniProt Q16629)
inactive: [1] 0.083 | [2] -0.043 | [3] -0.292 | [4] 0.063 | [5] -0.154 | [6] -0.032 | [7] -0.135 | [8] -0.037 | [9] 0.084 | [10] -0.063

SPHK1 isoform 2 (UniProt Q9NYA1)
inactive: [1] -0.028 | [2] 0.109 | [3] -0.039 | [4] -0.019 | [5] 0.051 | [6] 0.001 | [7] 0.074 | [8] -0.123 | [9] -0.059 | [10] 0.115

Next part:

STAM (UniProt Q92783)
inactive: [1] -0.054 | [2] -0.059 | [3] 0.11 | [4] 0.028 | [5] 0.051 | [6] 0.082 | [7] 0.183 | [8] -0.077 | [9] -0.003 | [10] 0.05

STIP1 isoform 2 (UniProt P31948)
inactive: [1] -0.02 | [2] 0.015 | [3] 0.022 | [4] 0.004 | [5] -0.012 | [6] 0.016 | [7] -0.005 | [8] 0.009 | [9] 0.023 | [10] 0.012

SPRYD4 (UniProt Q8WW59)
inactive: [1] -0.069 | [2] -0.005 | [3] 0.03 | [4] 0.008 | [5] 0.009 | [6] -0.002 | [7] -0.04 | [8] 0.049 | [9] 0.014 | [10] 0.024

SPN (UniProt P16150)
inactive: [1] 0.067 | [2] -0.048 | [3] 0.018 | [4] 0.013 | [5] -0.029 | [6] 0.02 | [7] -0.046 | [8] -0.032 | [9] 0.018 | [10] 0.159

SPIN1 (UniProt Q9Y657)
inactive: [1] -0.17 | [2] -0.107 | [3] 0.06 | [4] -0.017 | [5] 0.065 | [6] 0 | [7] -0.008 | [8] -0.035 | [9] -0.007 | [10] -0.024

SPTA1 (UniProt P02549)
inactive: [1] -0.018 | [2] 0.017 | [3] -0.238 | [4] -0.028 | [5] 0.03 | [6] 0.004 | [7] -0.038 | [8] -0.014 | [9] -0.074 | [10] -0.173

SRP9 (UniProt P49458)
inactive: [1] -0.111 | [2] -0.111 | [3] -0.48 | [4] -0.023 | [5] -0.063 | [6] 0.031 | [7] -0.076 | [8] -0.023 | [9] 0.061 | [10] -0.089

SRP14 (UniProt P37108)
inactive: [1] -0.077 | [2] -0.291 | [3] -0.471 | [4] 0.002 | [5] -0.103 | [6] -0.008 | [7] -0.042 | [8] -0.036 | [9] 0.078 | [10] -0.071

SSR1 (UniProt P43307)
inactive: [1] -0.028 | [2] 0.022 | [3] 0.018 | [4] -0.001 | [5] 0.023 | [6] 0.02 | [7] -0.029 | [8] -0.01 | [9] 0.016 | [10] 0.013

STAT3 (UniProt P40763)
inactive: [1] -0.023 | [2] 0.147 | [3] 0.026 | [4] 0.007 | [5] 0.031 | [6] 0.031 | [7] 0.011 | [8] -0.001 | [9] -0.01 | [10] -0.036

SPC24 (UniProt Q8NBT2)
inactive: [1] -0.012 | [2] 0.114 | [3] 0.029 | [4] 0.022 | [5] 0.01 | [6] 0.052 | [7] 0.089 | [8] 0.023 | [9] 0.012 | [10] -0.112

SSNA1 (UniProt O43805)
inactive: [1] -0.008 | [2] 0.048 | [3] 0.047 | [4] 0.055 | [5] 0.089 | [6] 0.048 | [7] 0.02 | [8] -0.041 | [9] -0.01 | [10] -0.002

SRP19 (UniProt P09132)
inactive: [1] -0.02 | [2] 0.049 | [3] 0.045 | [4] -0.029 | [5] -0.01 | [6] 0.014 | [7] 0.043 | [8] -0.004 | [9] -0.008 | [10] 0.071

SREK1 isoform 2 (UniProt Q8WXA9)
inactive: [1] -0.036 | [2] 0.1 | [3] -0.019 | [4] 0.12 | [5] -0.149 | [6] -0.084 | [7] 0.233 | [8] -0.096 | [9] -0.126 | [10] -0.24

SRI (UniProt P30626)
inactive: [1] -0.042 | [2] 0.113 | [3] 0.322 | [4] 0.025 | [5] 0.09 | [6] 0.121 | [7] 0.185 | [8] 0.016 | [9] -0.037 | [10] -0.041

STARD3 (UniProt Q14849)
inactive: [1] -0.073 | [2] 0.133 | [3] -0.05 | [4] 0.022 | [5] -0.095 | [6] 0.058 | [7] -0.028 | [8] 0.197 | [9] 0.059 | [10] 0.04

SQSTM1 (UniProt Q13501)
inactive: [1] -0.058 | [2] -0.008 | [3] 0.101 | [4] 0.037 | [5] -0.017 | [6] 0.108 | [7] -0.004 | [8] 0.02 | [9] -0.135 | [10] -0.045

SPECC1 (UniProt Q5M775)
inactive: [1] 0.044 | [2] -0.002 | [3] 0.022 | [4] 0 | [5] 0.056 | [6] 0.02 | [7] -0.208 | [8] -0.023 | [9] 0.026 | [10] 0.012

SRRM1 (UniProt Q8IYB3)
inactive: [1] 0.019 | [2] 0.025 | [3] -0.202 | [4] 0.132 | [5] -0.113 | [6] -0.04 | [7] -0.115 | [8] -0.013 | [9] 0.069 | [10] -0.139

SRP72 (UniProt O76094)
inactive: [1] 0.044 | [2] 0.105 | [3] -0.072 | [4] -0.054 | [5] 0.066 | [6] 0.001 | [7] 0.005 | [8] -0.052 | [9] -0.005 | [10] -0.194
